The data set in a line: Salt factor (S).

With “5-amino-3-(2′-O-acetyl-3′-deoxy-β-D-ribofuranosyl)-3H-thiazolo[4,5]pyrimidine-2-one [glutaric acid co-crystal]”, the Salt factor is on record as 1.2.

(Values after patent US9676793B2, “Co-crystals of 5-amino-2-oxothiazolo[4,5-d]pyrimidin-3(2H)-yl-5-hydroxymethyl tetrahydrofuran-3-yl acetate and methods for preparing and using the same” (Hoffmann-La Roche Inc., priority 2014, dated 2017).)
